The record followed here is patent publication US20250381241A1.

Results are given in words; binding and its absence hold for the method and conditions named. In cells and extracts the contact can be indirect. Some binding calls cover weakened binding; strength is not graded here.

The target of one test is T1, DDX21 (human) (UniProt Q9NR30).
T1 sequence (looked up): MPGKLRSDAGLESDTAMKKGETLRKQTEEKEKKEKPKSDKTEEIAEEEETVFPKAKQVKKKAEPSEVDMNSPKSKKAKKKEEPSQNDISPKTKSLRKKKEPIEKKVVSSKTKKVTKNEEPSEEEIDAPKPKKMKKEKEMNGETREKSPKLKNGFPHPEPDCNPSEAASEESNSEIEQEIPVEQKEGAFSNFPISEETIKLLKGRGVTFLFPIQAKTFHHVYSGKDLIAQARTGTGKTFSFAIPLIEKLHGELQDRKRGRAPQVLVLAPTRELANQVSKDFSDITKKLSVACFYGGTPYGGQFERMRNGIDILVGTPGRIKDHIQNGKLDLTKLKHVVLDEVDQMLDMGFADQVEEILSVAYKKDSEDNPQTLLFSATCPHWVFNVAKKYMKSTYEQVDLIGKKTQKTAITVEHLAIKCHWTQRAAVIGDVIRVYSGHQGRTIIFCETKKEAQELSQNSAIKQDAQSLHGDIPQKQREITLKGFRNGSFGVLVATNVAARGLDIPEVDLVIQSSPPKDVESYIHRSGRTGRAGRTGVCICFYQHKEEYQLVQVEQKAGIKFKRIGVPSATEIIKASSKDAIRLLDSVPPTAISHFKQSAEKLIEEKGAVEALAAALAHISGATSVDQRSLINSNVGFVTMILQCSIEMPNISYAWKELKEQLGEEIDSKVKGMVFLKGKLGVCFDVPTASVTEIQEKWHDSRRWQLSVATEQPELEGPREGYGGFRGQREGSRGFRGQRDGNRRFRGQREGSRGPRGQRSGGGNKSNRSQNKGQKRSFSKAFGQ
The experiment in a line: co-immunoprecipitation of ectopically expressed HA-tagged RIOK2 with monoclonal anti-HA antibody beads, then LC-MS/MS; spectral counts normalised to the immunoprecipitated HA-RIOK2, fold change with respect to WT.

In the next test the target is T2, WDR43 (human) (UniProt Q15061).
T2 sequence (looked up): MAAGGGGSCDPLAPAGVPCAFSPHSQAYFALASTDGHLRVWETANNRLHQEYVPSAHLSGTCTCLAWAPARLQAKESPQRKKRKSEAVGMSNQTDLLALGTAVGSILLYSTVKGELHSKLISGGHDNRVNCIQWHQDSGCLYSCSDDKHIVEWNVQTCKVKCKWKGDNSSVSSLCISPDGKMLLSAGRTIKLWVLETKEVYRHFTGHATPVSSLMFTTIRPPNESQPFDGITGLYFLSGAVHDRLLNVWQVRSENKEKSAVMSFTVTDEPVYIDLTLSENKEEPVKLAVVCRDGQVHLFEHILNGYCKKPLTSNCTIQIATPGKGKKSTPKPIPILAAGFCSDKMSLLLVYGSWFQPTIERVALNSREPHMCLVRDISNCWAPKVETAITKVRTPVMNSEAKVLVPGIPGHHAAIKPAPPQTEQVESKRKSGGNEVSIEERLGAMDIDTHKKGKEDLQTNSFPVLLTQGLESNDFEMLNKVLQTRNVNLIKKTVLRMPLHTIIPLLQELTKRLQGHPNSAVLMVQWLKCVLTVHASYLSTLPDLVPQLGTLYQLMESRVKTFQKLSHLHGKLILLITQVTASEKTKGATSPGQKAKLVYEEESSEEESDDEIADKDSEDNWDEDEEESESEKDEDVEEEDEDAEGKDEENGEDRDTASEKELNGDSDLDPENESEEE
The description is as above.

B1: ΔTAD2 (enzyme, not shown: small tags and cut ends)
chain: MGKVNVAKLRYMSRDDFRVLTAVEMGMKNHEIVPGSLIASIASLKHGGCNKVLRELVKHKLIAWERTKTVQGYRLTRQVVESVGNQMGVGKESDIYIVANEEGQQFALKLHRLGRTSFRNLKNKRDYHKHRHNVSWLYLSRLSAMKEFAYMKALYERKFPVPKPIDYNRHAVVMELINGYPLCQIHHVEDPASVYDEAMELIVKLANHGLIHGDFNEFNLILDESDHITMIDFPQMVSTSHPNAEWYFDRDVKCIKDFFMKRFSYESELFPTFKDIRREDTLDVEVSASGYTKEMQADDELLHPLGPDDKNIETKEGSEFSFSDGEVAEKAEVYGSENESERNCLEESEGCYCRSSGDPEQIKEDSLSEESADARSFEMTEFNQALEEIKGQVVENNSVTEFSEEKNRTENYNRQDGQRVQGGVPAGSDEYEDECPHLIALSSLNREFRPFRDEENVGAMNQYRTRTLSITSSGSAVSCSTIPPELVKQKVKRQLTKQQKSAVRRRLQKGEANIFTKQRRENMQNIKSSLEAASFWGE
Take B1: in the test with DDX21 (human), the binding result is listed as “binds”.

B2: ΔTAD1 (enzyme, not shown: small tags and cut ends)
chain: MGKVNVAKLRYMSHEIVPGSLIASIASLKHGGCNKVLRELVKHKLIAWERTKTVQGYRLTNAGYDYLALKTLSSRQVVESVGNQMGVGKESDIYIVANEEGQQFALKLHRLGRTSFRNLKNKRDYHKHRHNVSWLYLSRLSAMKEFAYMKALYERKFPVPKPIDYNRHAVVMELINGYPLCQIHHVEDPASVYDEAMELIVKLANHGLIHGDFNEFNLILDESDHITMIDFPQMVSTSHPNAEWYFDRDVKCIKDFFMKRFSYESELFPTFKDIRREDTLDVEVSASGYTKEMQADDELLHPLGPDDKNIETKEGSEFSFSDGEVAEKAEVYGSENESERNCLEESEGCYCRSSGDPEQIKEDSLSEESADARSFEMTEFNQALEEIKGQVVENNSVTEFSEEKNRTENYNRQDGQRVQGGVPAGSDEYEDECPHLIALSSLNREFRPFRDEENVGAMNQYRTRTLSITSSGSAVSCSTIPPELVKQKVKRQLTKQQKSAVRRRLQKGEANIFTKQRRENMQNIKSSLEAASFWGE
B2: the binding result with DDX21 (human) and with WDR43 (human) was “binds” in each case.
